Record: PubChem BioAssay AID504793 (Drosophila RNAi Screening Center, 2011)
Purpose: 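Whole-genome screen for parts of the DNA damage checkpoint at G2/M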 (primary screen). System: Drosophila S2R+ cells. Knock-down reagent: long dsRNA against Drosophila genes, about 0.25 µg dsRNA per well. Time to read-out: 4 days of dsRNA, then 4 hours of drug before read-out. Challenge: doxorubicin 0.5 µM for 4 hours to cause double-strand breaks, in cells also given a low, harmless dose of dsRNA against nbs to sensitise the assay. Read-out: 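Mitotic index as the number of phospho-histone H3-positive cells in each well following doxorubicin, given as raw counts without normalisation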. Reading the numbers: mitotic cells: higher = more cells in mitosis, weaker G2 arrest. Active means: 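a call needs confirmation in secondary tests, with other dsRNAs and a check of mitotic timing without damage, not just a high primary count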. Calls: active = confirmed in follow-up tests; inactive = not confirmed.
In all, the deposit lists about 23,000 reagents; below is a random part of those with a known target gene and a result. In the full data, 62 (0.27%) are marked active. 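Calls come from follow-up tests whose scores are not deposited, so confirmed genes may have low counts here; counts are not normalised per plate.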 Raw values vary from plate to plate and are shown uncorrected. The numbers tell different reagents against one gene apart. Names joined by + are all predicted targets of the reagent.

no.	target gene	reagent	mitotic cells, replicate 1	call
1	CG13946	1	1	inactive
2	CG32196	1	10	inactive
3	Src64B	1	4	inactive
4	Src64B	2	5	inactive
5	sqa	1	2	inactive
6	sqa	2	5	inactive
7	Ccdc39	1	7	inactive
8	CG7536	1	9	inactive
9	CG2017	1	6	inactive
10	CG3581	1	6	inactive
11	CG13102	1	3	inactive
12	CG4502	1	10	inactive
13	Gk2	1	5	inactive
14	Or49a	1	5	inactive
15	skl	1	10	inactive
16	scpr-B	1	6	inactive
17	CG3552	1	2	inactive
18	GstT1	1	4	inactive
19	CG12107	1	12	inactive
20	CG13170	1	8	inactive
21	CG13170	2	3	inactive

Entries listed so far whose gene name begins with S or s:
target gene	reagent	mitotic cells, replicate 1	call
Src64B	1	4	inactive
Src64B	2	5	inactive
sqa	1	2	inactive
sqa	2	5	inactive
skl	1	10	inactive
scpr-B	1	6	inactive

The list goes on.
no.	target gene	reagent	mitotic cells, replicate 1	call
22	Vajk4	1	5	inactive
23	Vajk4	2	4	inactive
24	Vajk4	3	6	inactive
25	ATPsynC	1	15	inactive
26	CG31142	1	4	inactive
27	miple2	1		inactive
28	CG6034	1	6	inactive
29	CG6034	2	6	inactive
30	CG5267	1	6	inactive
31	Gycbeta100B	1	24	inactive
32	Gycbeta100B	2	22	inactive
33	Gycbeta100B	3	3	inactive
34	Gycbeta100B	4	11	inactive
35	Fhos	1	4	inactive
36	Fhos	2	10	inactive
37	Fhos	3	4	inactive
38	Fhos	4	4	inactive
39	Fhos	5	7	inactive
40	CR18275 + CG13373	1	10	inactive
41	Kpc1	1	6	inactive
42	Fpps	1	16	inactive
43	CG2794	1	6	inactive
44	CG17681	1	2	inactive
45	CG13727	1	6	inactive
